Values from PubChem BioAssay AID1259405 (NCATS, 2018)
Screen: 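Mouse-designed siRNAs used to find CHO productivity engineering targets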 (primary screen). Cells: Chinese hamster CHO-K1 ovary cells with stable secreted eGFP expression. Reagent: single siRNA against mouse genes, 0.8 pmol siRNA per well (2 µl of 400 nM stock). Time to read-out: 3 days. Read-out: 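Per-well intracellular GFP measured by laser scanning cytometry, plus viability from ATP luminescence, each relative to plate median of non-targeting control wells, in %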. Scale: GFP, % of control: higher = more GFP per well, higher productivity; viability (ATP), % of control: higher = more viable cells (more ATP). Hit rule: 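Called active when intracellular GFP, relative to negative control, is at or above 120%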.
This is a random part of about 50,000 reagents. In the full data, about 4,000 (8%) got an active call. 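Mouse siRNA library applied to hamster cells; one well for each siRNA.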 Entries without a mark were called inactive. Reagents against one gene are numbered here.

| gene | reagent | GFP, % of control | viability (ATP), % of control |
| --- | --- | --- | --- |
| Txn1 (thioredoxin 1) | 1 | 74 | 55.8 |
| Txn1 (thioredoxin 1) | 2 | 38.6 | 43.3 |
| Txn1 (thioredoxin 1) | 3 | 98 | 54.4 |
| Ccl27a (C-C motif chemokine ligand 27A) | 1 | 120 (active) | 121 |
| Ccl27a (C-C motif chemokine ligand 27A) | 2 | 89.3 | 66.9 |
| 9530085L02Rik (RIKEN cDNA 9530085L02 gene) | 1 | 109 | 73.4 |
| 9530085L02Rik (RIKEN cDNA 9530085L02 gene) | 2 | 82.5 | 64.2 |
| 9530085L02Rik (RIKEN cDNA 9530085L02 gene) | 3 | 53.6 | 68.1 |
| Ift57 (intraflagellar transport 57) | 1 | 98.9 | 114 |
| Ift57 (intraflagellar transport 57) | 2 | 83.6 | 78.1 |
| Psd (pleckstrin and Sec7 domain containing) | 1 | 77.1 | 62.6 |
| Psd (pleckstrin and Sec7 domain containing) | 2 | 76.6 | 92.5 |
| Psd (pleckstrin and Sec7 domain containing) | 3 | 73.4 | 45.9 |
| Brwd1 (bromodomain and WD repeat domain containing 1) | 1 | 85 | 85.1 |
| Brwd1 (bromodomain and WD repeat domain containing 1) | 2 | 99.7 | 92.7 |
| Brwd1 (bromodomain and WD repeat domain containing 1) | 3 | 94.3 | 83 |
| Srcin1 (SRC kinase signaling inhibitor 1) | 1 | 71 | 66.5 |
| Srcin1 (SRC kinase signaling inhibitor 1) | 2 | 77 | 63 |
| Srcin1 (SRC kinase signaling inhibitor 1) | 3 | 97.5 | 97.2 |
| Oas3 (2'-5' oligoadenylate synthetase 3) | 1 | 112 | 135 |
| Oas3 (2'-5' oligoadenylate synthetase 3) | 2 | 76.7 | 90 |
| Gpr75 (G protein-coupled receptor 75) | 1 | 159 (active) | 123 |
| Gpr75 (G protein-coupled receptor 75) | 2 | 64.9 | 58.4 |
| Seh1l (SEH1-like (S. cerevisiae) | 1 | 93.7 | 79.3 |
| Seh1l (SEH1-like (S. cerevisiae) | 2 | 22 | 10.9 |
| Seh1l (SEH1-like (S. cerevisiae) | 3 | 72.5 | 77.3 |
| Rps6kc1 (ribosomal protein S6 kinase C1) | 1 | 89.2 | 76.3 |
| Rps6kc1 (ribosomal protein S6 kinase C1) | 2 | 85 | 58.1 |
| Rps6kc1 (ribosomal protein S6 kinase C1) | 3 | 80 | 63.6 |
| Or2a5 (olfactory receptor family 2 subfamily A member 5) | 1 | 72.3 | 48.7 |
| Or2a5 (olfactory receptor family 2 subfamily A member 5) | 2 | 93.3 | 80.3 |
| Or2a5 (olfactory receptor family 2 subfamily A member 5) | 3 | 87.2 | 77.3 |
| Gata5 (GATA binding protein 5) | 1 | 54.6 | 67.2 |
| Gata5 (GATA binding protein 5) | 2 | 63.6 | 63.6 |
